# From PubChem BioAssay AID493014 (National Center for Advancing Translational Sciences (NCATS), 2011)
# The other results are listed elsewhere or left out. The main result of the screen is listed elsewhere. These columns were measured beside it and carry no call. The list favours compounds with an active or inconclusive main result. The note in brackets gives the kind of curve behind each potency; many fits are weak.
# Experiment: qHTS Assay to Find Inhibitors of Chronic Active B-Cell Receptor Signaling
# Conditions: ABC-DLBCL IkBa-CBG/CBR reporter, luminescence ratio (green luciferase fused to IkBa over red control in TMD8 lymphoma cells), 4 h
# In short: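 Doxycycline induced both beetle luciferases in TMD8 lymphoma cells; IKK-driven degradation limits the IkappaBalpha-fused green signal, while red luminescence normalises for cell number and nonspecific effects. Compounds tested up to 46 uM, 4 hrs.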
# [1] = measured here: CBR red luminescence, cell number
# [2] = measured here: IkBa-CBG green luminescence
SMILES,AC50 [1],AC50 [2]
Cc1c(CC(=O)NCCCC(=O)O)c(=O)oc2cc3occ(-c4ccccc4)c3cc12,"22.4 µM [rising, single point]",–
O=C(CCCN1C(=O)c2ccccc2C1=O)NCc1cccnc1,"10.3 µM [rising, partial curve, poor fit]",–
C=C(NS(=O)(=O)c1ccc(C)cc1)C(=O)OC,"2.06 µM [rising, full curve, poor fit]",–
Cc1cc(=O)[nH]c2ccc(Cl)cc12,"2.91 µM [falling, partial curve]",–
COc1cc(C(=O)N/N=C/c2ccc(OC(=O)c3cccc(C)c3)cc2)ccc1O,"14.1 µM [falling, partial curve]",–
O=C(CCl)N(c1ccccc1)C1CCCCC1,"8.91 µM [falling, partial curve]","35.5 µM [rising, partial curve, poor fit]"
C=CCn1c(SCC(=O)Nc2nc3ccccc3s2)nc(O)c(CC)c1=O,"11.2 µM [falling, partial curve, poor fit]",–
COc1ccc(OC)c(NC(=O)C2CC(C)=C(C)CC2C(=O)O)c1 (configuration not stated),"6.31 µM [falling, single point]",–
CCN(CC)CCCNC(=O)CN1N=C(c2ccc(OC)cc2)CCC1=O,"15.8 µM [rising, partial curve, poor fit]",–
CCOC(=O)C1CCN(C(=O)Nc2ccc(OC(F)(F)F)cc2)CC1,"0.501 µM [falling, full curve, poor fit]",–
Cc1cc(=O)oc2cc(OCC(=O)OCC(=O)Nc3ccc(C(N)=O)cc3)ccc12,"14.1 µM [rising, partial curve, poor fit]",–
O=C(CSc1nnc(CNC(=O)c2c(F)cccc2Cl)o1)NCc1ccc(F)cc1,"2.24 µM [rising, partial curve, poor fit]",–
Cc1cc(N/N=C/c2ccc(O)c(C)c2O)nc(-c2ccccc2O)n1,"2.31 µM [falling, partial curve, poor fit]","0.206 µM [rising, full curve, poor fit]"
CC1=NNC(=O)C1CCC(=O)N/N=C\c1cccc(Cl)c1 (configuration not stated),"11.2 µM [falling, partial curve, poor fit]",–
COc1cccc(CC2(CO)CCCN(Cc3cn(C)c4ccccc34)C2)c1 (configuration not stated),"35.5 µM [falling, single point]",–
CCN(CC)C(=O)CSc1nc(-c2ccccc2)ccc1C#N,"20 µM [rising, single point]",–
Cc1ccc(-c2nnc(SCC(=O)N3CCN(c4ccccc4)CC3)o2)cc1,"5.62 µM [rising, single point]",–
Nn1c(COc2ccccc2)nnc1SCC(=O)O,"0.651 µM [falling, partial curve, poor fit]",–
CCNC(=O)COc1cc(C)c(Cl)c(C)c1,"29.1 µM [falling, single point]",–
CCc1cccc2c(C(=O)C(NC(C)CC)c3ccccc3)c[nH]c12 (configuration not stated),"35.5 µM [falling, single point]",–
COC(=O)c1cnn(-c2ccc(C(=O)Nc3cc(OC)c(OC)c(OC)c3)cc2)c1N,"11.2 µM [falling, partial curve, poor fit]",–

SMILES,AC50 [1],AC50 [2]
CCOC(=O)c1cc(-c2ccc(OC)cc2)n(CCC(=O)Nc2nc3ccc(OCC)cc3s2)c1C,"3.98 µM [rising, full curve]",–
COc1cc(-c2nnc(-c3ccccc3)o2)cc(OC)c1OC,"32.6 µM [falling, single point]",–
COc1ccc(-n2nnnc2SCC(=O)NC2CC2)cc1,"29.1 µM [rising, single point]",–
COC(=O)N/N=C/c1cc(C)n(-c2ccc(F)cc2)c1C,"20 µM [rising, single point]",–
CC(C)c1ccc(C(=O)NC(=S)Nc2ccc3[nH]c(=O)[nH]c3c2)cc1,"35.5 µM [rising, partial curve, poor fit]",–
COc1ccc(Cl)cc1NS(=O)(=O)c1cccc(C(=O)NCC(c2ccco2)N2CCCC2)c1 (configuration not stated),"29.1 µM [falling, single point]",–
COc1ccc2nc(-c3ccccc3)[nH]c2c1,"0.366 µM [falling, full curve, poor fit]",–
Cc1nc(N2CCOCC2)c2c(C)c(C(=O)Nc3ccc(C(F)(F)F)cc3)sc2n1,"10 µM [rising, partial curve]",–
O=C(Nc1cc(Br)ccc1O)c1cnn2c(C(F)F)cc(C3CC3)nc12,"6.31 µM [falling, single point]",–
Cc1ccc2cc(CN(Cc3ccc4c(c3)OCO4)Cc3nnnn3Cc3ccco3)c(=O)[nH]c2c1C,"29.1 µM [falling, single point]",–
Cc1ccc(-n2c(SCC(=O)NCC3CCCO3)nc3n[nH]c(C)c3c2=N)cc1Cl (configuration not stated),"14.6 µM [rising, partial curve, poor fit]","20.6 µM [falling, single point]"
Cc1ccc(C2CCN(C(=O)Nc3ccc(F)cc3)C2)cc1 (configuration not stated),"2.51 µM [falling, partial curve, poor fit]",–
CC(=O)CCCCn1c(=O)c2c(ncn2C)n(C)c1=O,"6.51 µM [falling, single point]",–
COc1ccc(NC(=O)c2cc3ccccc3o2)cc1,"11.2 µM [falling, partial curve]",–
C=CCNC(=O)/C(C#N)=C/c1ccc(OS(=O)(=O)c2ccc(C)cc2)c(OC)c1,–,"29.1 µM [falling, single point]"
Cc1cc(C(F)(F)F)c(C#N)c(SCC(=O)NC(C)(C)C)n1,"0.0731 µM [falling, full curve, poor fit]",–
Cc1cc(NC(=O)CCC(=O)N(c2ccc(F)cc2)C(C(=O)NC2CCCC2)c2ccncc2)no1 (configuration not stated),"35.5 µM [rising, single point]",–
Cc1ccc(O)c(C(=O)c2cnc3c(c2)COc2ccccc2-3)c1,"32.6 µM [falling, single point]","23.1 µM [rising, single point]"
CC(=O)Nc1ccc(Sc2ccccc2C(=O)O)c(C(=O)O)c1,"3.55 µM [falling, partial curve, poor fit]",–
Fc1ccc(CCNC(=S)Nc2ccc(F)c(Cl)c2)cc1,"31.6 µM [falling, single point]",–
CCc1ccccc1NC(=O)c1cc(-c2cccs2)on1,"25.1 µM [falling, partial curve, poor fit]",–

# Reprinted at random: 2 compounds from above.
SMILES,AC50 [1],AC50 [2]
Fc1ccc(CCNC(=S)Nc2ccc(F)c(Cl)c2)cc1,"31.6 µM [falling, single point]",–
CCc1ccccc1NC(=O)c1cc(-c2cccs2)on1,"25.1 µM [falling, partial curve, poor fit]",–

# Looked up above.
# AC50 [1], `CC(=O)Nc1ccc(Sc2ccccc2C(=O)O)c(C(=O)O)c1` is entered as 3.55 µM [falling, partial curve, poor fit]
# AC50 [1], `COc1ccc(-n2nnnc2SCC(=O)NC2CC2)cc1` is entered as 29.1 µM [rising, single point]
# AC50 [1], `Cc1ccc(C2CCN(C(=O)Nc3ccc(F)cc3)C2)cc1` (configuration not stated) is entered as 2.51 µM [falling, partial curve, poor fit]

# More structures follow:

SMILES,AC50 [1],AC50 [2]
Cc1nc(NC(=O)/C=C/c2ccccc2)sc1C(=O)Nc1cccc(Cl)c1,"8.2 µM [falling, partial curve]",–
CSc1nnc(-c2ccccc2)n1N,"5.62 µM [rising, partial curve, poor fit]",–
CC1(C)c2ccccc2-c2nc3ccccc3cc2C1O (configuration not stated),"4.47 µM [rising, partial curve, poor fit]",–
CC(=O)Nc1ccc(C(=O)OCC(=O)N2CCN(C(=O)c3ccco3)CC2)cc1,"0.517 µM [rising, full curve, poor fit]",–
c1ccc(-c2cnc(-c3ccccc3)nc2)cc1,"0.00517 µM [rising, full curve, poor fit]",–
CNC(=S)N/N=C/c1cn(CCOc2cccc(OC)c2)c2ccccc12,–,"10.3 µM [falling, partial curve, poor fit]"
COc1cccc(NC(=O)c2cnc(SCC(=O)N3CCOCC3)n(C)c2=O)c1,"3.55 µM [falling, full curve]",–
COc1ccc(NC(=O)C(=O)N/N=C/c2cc(C)n(-c3cccc(Cl)c3Cl)c2C)c(OC)c1,"2.59 µM [falling, full curve, poor fit]",–
COc1ccc(NC(=O)C#Cc2ccccc2)cc1OC,"3.55 µM [falling, partial curve, poor fit]",–
COc1ccc2c(c1)-c1ccccc1S(=O)(=O)N2C(C)=O,"11.2 µM [rising, partial curve]",–
O=c1/c(=C/c2ccccn2)sc2n1CN(c1ccccc1)CN=2,"12.6 µM [falling, single point]",–
Cc1ccc(CN2CCNC(=O)C2CC(=O)O)o1 (configuration not stated),"10.3 µM [rising, partial curve, poor fit]",–
N#Cc1ccc(N2Cc3ccccc3C2=NC(=O)c2cccnc2Cl)cc1,"4.11 µM [rising, single point]",–
CC(C)Cc1nnc(NC(=O)CCC(=O)N2CCN(c3ccc([N+](=O)[O-])cc3)CC2)s1,"14.1 µM [falling, single point]",–
Cc1ccc2nc(NC(=O)C3CCN(S(=O)(=O)c4cccnc4)CC3)sc2c1,–,"15.8 µM [rising, partial curve, poor fit]"
N/C(=N\OC(=O)c1ccc(F)cc1)c1ccccc1,"14.1 µM [falling, single point]",–
Cc1ccc(Nc2nnc(SCC3CCCCO3)s2)cc1 (configuration not stated),"9.2 µM [falling, single point]",–
COc1cccc(CN2CCN(Cc3cccc4c3OCO4)CC2CCO)c1 (configuration not stated),"11.2 µM [falling, partial curve]",–
CN(C)S(=O)(=O)N1CCCC(C(=O)c2ccc(-c3ccccc3)c(F)c2)C1 (configuration not stated),"5.62 µM [rising, single point]",–
O=C(O)c1ccc(N2C(=O)c3cccc4cccc(c34)C2=O)cc1,"35.5 µM [falling, single point]",–
COC(=O)c1ccc(NC(=O)C(=O)N2CCN(C(=S)Nc3cccc(C)c3C)CC2)cc1,"16.4 µM [falling, single point]",–
